# Paper PMC5013017
# By UniProt entry, the sequences of proteins in these tests, tags left out. Residues count along the entry.
# UniProt P05067, residues 672-713: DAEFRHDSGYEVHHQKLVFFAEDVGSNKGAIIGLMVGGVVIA
# These are yes or no findings as the source states them, for the method shown. Binding seen in cells or lysates may run through a third protein. A yes stands for co-enrichment or nearness to the bait. Other partners may have been found.
# Target: amyloid β peptide, Aβ1-42 (human (endogenous in hippocampus)) (UniProt P05067)
# Assay: affinity purification with mass spectrometry; pools of caudal hippocampus (3 AD, 3 NC); homogenate on Protein-G magnetic beads coated with antibody to total tau (ab80579) or to Aβ (ab11132); rinsed 3x, eluted; 1% sarcosyl-insoluble pellet resolved on SDS gel, slices digested, LC-MS/MS
row,binding,Binder
1,binds,"neurofilament heavy chain (protein, UniProt P12036 1-1020) MMSFGGADALLGAPFAPLHGGGSLHYALARKGGAGGTRSAAGSSSGFHSWTRTSVSSVSASPSRFRGAGAASSTDSLDTLSNGPEGCMVAVATSRSEKEQLQALNDRFAGYIDKVRQLEAHNRSLEGEAAALRQQQAGRSAMGELYEREVREMRGAVLRLGAARGQLRLEQEHLLEDIAHVRQRLDDEARQREEAEAAARALARFAQEAEAARVDLQKKAQALQEECGYLRRHHQEEVGELLGQIQGSGAAQAQMQAETRDALKCDVTSALREIRAQLEGHAVQSTLQSEEWFRVRLDRLSEAAKVNTDAMRSAQEEITEYRRQLQARTTELEALKSTKDSLERQRSELEDRHQADIASYQEAIQQLDAELRNTKWEMAAQLREYQDLLNVKMALDIEIAAYRKLLEGEECRIGFGPIPFSLPEGLPKIPSVSTHIKVKSEEKIKVVEKSEKETVIVEEQTEETQVTEEVTEEEEKEAKEEEGKEEEGGEEEEAEGGEEETKSPPAEEAASPEKEAKSPVKEEAKSPAEAKSPEKEEAKSPAEVKSPEKAKSPAKEEAKSPPEAKSPEKEEAKSPAEVKSPEKAKSPAKEEAKSPAEAKSPEKAKSPVKEEAKSPAEAKSPVKEEAKSPAEVKSPEKAKSPTKEEAKSPEKAKSPEKEEAKSPEKAKSPVKAEAKSPEKAKSPVKAEAKSPEKAKSPVKEEAKSPEKAKSPVKEEAKSPEKAKSPVKEEAKTPEKAKSPVKEEAKSPEKAKSPEKAKTLDVKSPEAKTPAKEEARSPADKFPEKAKSPVKEEVKSPEKAKSPLKEDAKAPEKEIPKKEEVKSPVKEEEKPQEVKVKEPPKKAEEEKAPATPKTEEKKDSKKEEAPKKEAPKPKVEEKKEPAVEKPKESKVEAKKEEAEDKKKVPTPEKEAPAKVEVKEDAKPKEKTEVAKKEPDDAKAKEPSKPAEKKEAAPEKKDTKEEKAKKPEEKPKTEAKAKEDDKTLSKEPSKPKAEKAEKSSSTDQKDSKPPEKATEDKAAKGK"
2,binds,"tenascin receptor (protein, UniProt Q92752 32-1358) QLEVTTERVQRQSVEEEGGIANYNTSSKEQPVVFNHVYNINVPLDNLCSSGLEASAEQEVSAEDETLAEYMGQTSDHESQVTFTHRINFPKKACPCASSAQVLQELLSRIEMLEREVSVLRDQCNANCCQESAATGQLDYIPHCSGHGNFSFESCGCICNEGWFGKNCSEPYCPLGCSSRGVCVDGQCICDSEYSGDDCSELRCPTDCSSRGLCVDGECVCEEPYTGEDCRELRCPGDCSGKGRCANGTCLCEEGYVGEDCGQRQCLNACSGRGQCEEGLCVCEEGYQGPDCSAVAPPEDLRVAGISDRSIELEWDGPMAVTEYVISYQPTALGGLQLQQRVPGDWSGVTITELEPGLTYNISVYAVISNILSLPITAKVATHLSTPQGLQFKTITETTVEVQWEPFSFSFDGWEISFIPKNNEGGVIAQVPSDVTSFNQTGLKPGEEYIVNVVALKEQARSPPTSASVSTVIDGPTQILVRDVSDTVAFVEWIPPRAKVDFILLKYGLVGGEGGRTTFRLQPPLSQYSVQALRPGSRYEVSVSAVRGTNESDSATTQFTTEIDAPKNLRVGSRTATSLDLEWDNSEAEVQEYKVVYSTLAGEQYHEVLVPRGIGPTTRATLTDLVPGTEYGVGISAVMNSQQSVPATMNARTELDSPRDLMVTASSETSISLIWTKASGPIDHYRITFTPSSGIASEVTVPKDRTSYTLTDLEPGAEYIISVTAERGRQQSLESTVDAFTGFRPISHLHFSHVTSSSVNITWSDPSPPADRLILNYSPRDEEEEMMEVSLDATKRHAVLMGLQPATEYIVNLVAVHGTVTSEPIVGSITTGIDPPKDITISNVTKDSVMVSWSPPVASFDYYRVSYRPTQVGRLDSSVVPNTVTEFTITRLNPATEYEISLNSVRGREESERICTLVHTAMDNPVDLIATNITPTEALLQWKAPVGEVENYVIVLTHFAVAGETILVDGVSEEFRLVDLLPSTHYTATMYATNGPLTSGTISTNFSTLLDPPANLTASEVTRQSALISWQPPRAEIENYVLTYKSTDGSRKELIVDAEDTWIRLEGLLENTDYTVLLQAAQDTTWSSITSTAFTTGGRVFPHPQDCAQHLMNGDTLSGVYPIFLNGELSQKLQVYCDMTTDGGGWIVFQRRQNGQTDFFRKWADYRVGFGNVEDEFWLGLDNIHRITSQGRYELRVDMRDGQEAAFASYDRFSVEDSRNLYKLRIGSYNGTAGDSLSYHQGRPFSTEDRDNDVAVTNCAMSYKGAWWYKNCHRTNLNGKYGESRHSQGINWYHWKGHEFSIPFVEMKMRPYNHRLMAGRKRQSLQF"
3,binds,"6-phosphofructokinase C (protein, UniProt Q01813 1-784) MDADDSRAPKGSLRKFLEHLSGAGKAIGVLTSGGDAQGMNAAVRAVVRMGIYVGAKVYFIYEGYQGMVDGGSNIAEADWESVSSILQVGGTIIGSARCQAFRTREGRLKAACNLLQRGITNLCVIGGDGSLTGANLFRKEWSGLLEELARNGQIDKEAVQKYAYLNVVGMVGSIDNDFCGTDMTIGTDSALHRIIEVVDAIMTTAQSHQRTFVLEVMGRHCGYLALVSALACGADWVFLPESPPEEGWEEQMCVKLSENRARKKRLNIIIVAEGAIDTQNKPITSEKIKELVVTQLGYDTRVTILGHVQRGGTPSAFDRILASRMGVEAVIALLEATPDTPACVVSLNGNHAVRLPLMECVQMTQDVQKAMDERRFQDAVRLRGRSFAGNLNTYKRLAIKLPDDQIPKTNCNVAVINVGAPAAGMNAAVRSAVRVGIADGHRMLAIYDGFDGFAKGQIKEIGWTDVGGWTGQGGSILGTKRVLPGKYLEEIATQMRTHSINALLIIGGFEAYLGLLELSAAREKHEEFCVPMVMVPATVSNNVPGSDFSIGADTALNTITDTCDRIKQSASGTKRRVFIIETMGGYCGYLANMGGLAAGADAAYIFEEPFDIRDLQSNVEHLTEKMKTTIQRGLVLRNESCSENYTTDFIYQLYSEEGKGVFDCRKNVLGHMQQGGAPSPFDRNFGTKISARAMEWITAKLKEARGRGKKFTTDDSICVLGISKRNVIFQPVAELKKQTDFEHRIPKEQWWLKLRPLMKILAKYKASYDVSDSGQLEHVQPWSV"
4,binds,"peroxiredoxin 1 (protein, UniProt Q06830 1-199) MSSGNAKIGHPAPNFKATAVMPDGQFKDISLSDYKGKYVVFFFYPLDFTFVCPTEIIAFSDRAEEFKKLNCQVIGASVDSHFCHLAWVNTPKKQGGLGPMNIPLVSDPKRTIAQDYGVLKADEGISFRGLFIIDDKGILRQITVNDLPVGRSVDETLRLVQAFQFTDKHGEVCPAGWKPGSDTIKPDVQKSKEYFSKQK"
5,binds,"contactin 1 (protein, UniProt Q12860 21-993) EFTWYRRYGHGVSEEDKGFGPIFEEQPINTIYPEESLEGKVSLNCRARASPFPVYKWRMNNGDVDLTSDRYSMVGGNLVINNPDKQKDAGIYYCLASNNYGMVRSTEATLSFGYLDPFPPEERPEVRVKEGKGMVLLCDPPYHFPDDLSYRWLLNEFPVFITMDKRRFVSQTNGNLYIANVEASDKGNYSCFVSSPSITKSVFSKFIPLIPIPERTTKPYPADIVVQFKDVYALMGQNVTLECFALGNPVPDIRWRKVLEPMPSTAEISTSGAVLKIFNIQLEDEGIYECEAENIRGKDKHQARIYVQAFPEWVEHINDTEVDIGSDLYWPCVATGKPIPTIRWLKNGYAYHKGELRLYDVTFENAGMYQCIAENTYGAIYANAELKILALAPTFEMNPMKKKILAAKGGRVIIECKPKAAPKPKFSWSKGTEWLVNSSRILIWEDGSLEINNITRNDGGIYTCFAENNRGKANSTGTLVITDPTRIILAPINADITVGENATMQCAASFDPALDLTFVWSFNGYVIDFNKENIHYQRNFMLDSNGELLIRNAQLKHAGRYTCTAQTIVDNSSASADLVVRGPPGPPGGLRIEDIRATSVALTWSRGSDNHSPISKYTIQTKTILSDDWKDAKTDPPIIEGNMEAARAVDLIPWMEYEFRVVATNTLGRGEPSIPSNRIKTDGAAPNVAPSDVGGGGGRNRELTITWAPLSREYHYGNNFGYIVAFKPFDGEEWKKVTVTNPDTGRYVHKDETMSPSTAFQVKVKAFNNKGDGPYSLVAVINSAQDAPSEAPTEVGVKVLSSSEISVHWEHVLEKIVESYQIRYWAAHDKEEAANRVQVTSQEYSARLENLLPDTQYFIEVGACNSAGCGPPSDMIEAFTKKAPPSQPPRIISSVRSGSRYIITWDHVVALSNESTVTGYKVLYRPDGQHDGKLYSTHKHSIEVPIPRDGEYVVEVRAHSDGGDGVVSQVKIS"
6,binds,"neurofilament light chain (protein, UniProt P07196 1-543) MSSFSYEPYYSTSYKRRYVETPRVHISSVRSGYSTARSAYSSYSAPVSSSLSVRRSYSSSSGSLMPSLENLDLSQVAAISNDLKSIRTQEKAQLQDLNDRFASFIERVHELEQQNKVLEAELLVLRQKHSEPSRFRALYEQEIRDLRLAAEDATNEKQALQGEREGLEETLRNLQARYEEEVLSREDAEGRLMEARKGADEAALARAELEKRIDSLMDEISFLKKVHEEEIAELQAQIQYAQISVEMDVTKPDLSAALKDIRAQYEKLAAKNMQNAEEWFKSRFTVLTESAAKNTDAVRAAKDEVSESRRLLKAKTLEIEACRGMNEALEKQLQELEDKQNADISAMQDTINKLENELRTTKSEMARYLKEYQDLLNVKMALDIEIAAYRKLLEGEETRLSFTSVGSITSGYSQSSQVFGRSAYGGLQTSSYLMSTRSFPSYYTSHVQEEQIEVEETIEAAKAEEAKDEPPSEGEAEEEEKDKEEAEEEEAAEEEEAAKEESEEAKEEEEGGEGEEGEETKEAEEEEKKVEGAGEEQAAKKKD"
7,binds,"β-SNAB (protein, UniProt Q9H115 1-298) MDNAGKEREAVQLMAEAEKRVKASHSFLRGLFGGNTRIEEACEMYTRAANMFKMAKNWSAAGNAFCQAAKLHMQLQSKHDSATSFVDAGNAYKKADPQEAINCLNAAIDIYTDMGRFTIAAKHHITIAEIYETELVDIEKAIAHYEQSADYYKGEESNSSANKCLLKVAAYAAQLEQYQKAIEIYEQVGANTMDNPLLKYSAKDYFFKAALCHFIVDELNAKLALEKYEEMFPAFTDSRECKLLKKLLEAHEEQNSEAYTEAVKEFDSISRLDQWLTTMLLRIKKSIQGDGEGDGDLK"
